The chains are these.
B1: ERAL1 (protein, UniProt O75616 44-437)
chain: VSCVAGSAFSGPRLASASRSNGQGSALDHFLGFSQPDSSVTPCVPAVSMNRDEQDVLLVHHPDMPENSRVLRVVLLGAPNAGKSTLSNQLLGRKVFPVSRKVHTTRCQALGVITEKETQVILLDTPGIISPGKQKRHHLELSLLEDPWKSMESADLVVVLVDVSDKWTRNQLSPQLLRCLTKYSQIPSVLVMNKVDCLKQKSVLLELTAALTEGVVNGKKLKMRQAFHSHPGTHCPSPAVKDPNTQSVGNPQRIGWPHFKEIFMLSALSQEDVKTLKQYLLTQAQPGPWEYHSAVLTSQTPEEICANIIREKLLEHLPQEVPYNVQQKTAVWEEGPGGELVIQQKLLVPKESYVKLLIGPKGHVISQIAQEAGHDLMDIFLCDVDIRLSVKLLK
B2: NOA1 (protein, UniProt Q8NC60 1-698)
chain: MLPARLPFRLLSLFLRGSAPTAARHGLREPLLERRCAAASSFQHSSSLGRELPYDPVDTEGFGEGGDMQERFLFPEYILDPEPQPTREKQLQELQQQQEEEERQRQQRREERRQQNLRARSREHPVVGHPDPALPPSGVNCSGCGAELHCQDAGVPGYLPREKFLRTAEADGGLARTVCQRCWLLSHHRRALRLQVSREQYLELVSAALRRPGPSLVLYMVDLLDLPDALLPDLPALVGPKQLIVLGNKVDLLPQDAPGYRQRLRERLWEDCARAGLLLAPGHQGPQRPVKDEPQDGENPNPPNWSRTVVRDVRLISAKTGYGVEELISALQRSWRYRGDVYLVGATNAGKSTLFNTLLESDYCTAKGSEAIDRATISPWPGTTLNLLKFPICNPTPYRMFKRHQRLKKDSTQAEEDLSEQEQNQLNVLKKHGYVVGRVGRTFLYSEEQKDNIPFEFDADSLAFDMENDPVMGTHKSTKQVELTAQDVKDAHWFYDTPGITKENCILNLLTEKEVNIVLPTQSIVPRTFVLKPGMVLFLGAIGRIDFLQGNQSAWFTVVASNILPVHITSLDRADALYQKHAGHTLLQIPMGGKERMAGFPPLVAEDIMLKEGLGASEAVADIKFSSAGWVSVTPNFKDRLHLRGYTPEGTVLTVRPPLLPYIVNIKGQRIKKSVAYKTKKPPSLMYNVRKKKGKINV
B3: DHX30 (protein, UniProt Q7L2E3 1-1194)
chain: MFSLDSFRKDRAQHRQRQCKLPPPRLPPMCVNPTPGGTISRASRDLLKEFPQPKNLLNSVIGRALGISHAKDKLVYVHTNGPKKKKVTLHIKWPKSVEVEGYGSKKIDAERQAAAAACQLFKGWGLLGPRNELFDAAKYRVLADRFGSPADSWWRPEPTMPPTSWRQLNPESIRPGGPGGLSRSLGREEEEDEEEELEEGTIDVTDFLSMTQQDSHAPLRDSRGSSFEMTDDDSAIRALTQFPLPKNLLAKVIQIATSSSTAKNLMQFHTVGTKTKLSTLTLLWPCPMTFVAKGRRKAEAENKAAALACKKLKSLGLVDRNNEPLTHAMYNLASLRELGETQRRPCTIQVPEPILRKIETFLNHYPVESSWIAPELRLQSDDILPLGKDSGPLSDPITGKPYVPLLEAEEVRLSQSLLELWRRRGPVWQEAPQLPVDPHRDTILNAIEQHPVVVISGDTGCGKTTRIPQLLLERYVTEGRGARCNVIITQPRRISAVSVAQRVSHELGPSLRRNVGFQVRLESKPPSRGGALLFCTVGILLRKLQSNPSLEGVSHVIVDEVHERDVNTDFLLILLKGLQRLNPALRLVLMSATGDNERFSRYFGGCPVIKVPGFMYPVKEHYLEDILAKLGKHQYLHRHRHHESEDECALDLDLVTDLVLHIDARGEPGGILCFLPGWQEIKGVQQRLQEALGMHESKYLILPVHSNIPMMDQKAIFQQPPVGVRKIVLATNIAETSITINDIVHVVDSGLHKEERYDLKTKVSCLETVWVSRANVIQRRGRAGRCQSGFAYHLFPRSRLEKMVPFQVPEILRTPLENLVLQAKIHMPEKTAVEFLSKAVDSPNIKAVDEAVILLQEIGVLDQREYLTTLGQRLAHISTDPRLAKAIVLAAIFRCLHPLLVVVSCLTRDPFSSSLQNRAEVDKVKALLSHDSGSDHLAFVRAVAGWEEVLRWQDRSSRENYLEENLLYAPSLRFIHGLIKQFSENIYEAFLVGKPSDCTLASAQCNEYSEEEELVKGVLMAGLYPNLIQVRQGKVTRQGKFKPNSVTYRTKSGNILLHKSTINREATRLRSRWLTYFMAVKSNGSVFVRDSSQVHPLAVLLLTDGDVHIRDDGRRATISLSDSDLLRLEGDSRTVRLLKELRRALGRMVERSLRSELAALPPSVQEEHGQLLALLAELLRGPCGSFDVRKTADD
B4: RPSUD4 (protein, UniProt Q96CM3 16-377)
chain: NGQGCGSLFTLVSKPFCAAAAASTAINAQRLAEKLRAQKREQDTKKEPVSTNAVQRRVQEIVRFTRQLQRVHPNVLAKALTRGILHQDKNLVVINKPYGLPVHGGPGVQLCITDVLPILAKMLHGHKAEPLHLCHRLDKETTGVMVLAWDKDMAHQVQELFRTRQVVKKYWAITVHVPMPSAGVVDIPIVEKEAQGQQQHHKMTLSPSYRMDDGKMVKVRRSRNAQVAVTQYQVLSSTLSSALVELQPITGIKHQLRVHLSFGLDCPILGDHKYSDWNRLAPQKLSVGTLKKLGLEQSKARYIPLHLHARQLILPALGSGKEELNLVCKLPRFFVHSLHRLRLEMPNEDQNENNEAKCLGAQ
B5: MTERF3 (protein, UniProt Q96E29 69-417)
chain: SSQSTSSSSQENNSAQSSLLPSMNEQSQKTQNISSFDSELFLEELDELPPLSPMQPISEEEAIQIIADPPLPPASFTLRDYVDHSETLQKLVLLGVDLSKIEKHPEAANLLLRLDFEKDIKQMLLFLKDVGIEDNQLGAFLTKNHAIFSEDLENLKTRVAYLHSKNFSKADVAQMVRKAPFLLNFSVERLDNRLGFFQKELELSVKKTRDLVVRLPRLLTGSLEPVKENMKVYRLELGFKHNEIQHMITRIPKMLTANKMKLTETFDFVHNVMSIPHHIIVKFPQVFNTRLFKVKERHLFLTYLGRAQYDPAKPNYISLDKLVSIPDEIFCEEIAKASVQDFEKFLKTL
B6: MTERF1 (protein, UniProt Q99551 58-399)
chain: FGVKCHNTDSEPLKNEDLLKNLLTMGVDIDMARKRQPGVFHRMITNEQDLKMFLLSKGASKEVIASIISRYPRAITRTPENLSKRWDLWRKIVTSDLEIVNILERSPESFFRSNNNLNLENNIKFLYSVGLTRKCLCRLLTNAPRTFSNSLDLNKQMVEFLQAAGLSLGHNDPADFVRKIIFKNPFILIQSTKRVKANIEFLRSTFNLNSEELLVLICGPGAEILDLSNDYARRSYANIKEKLFSLGCTEEEVQKFVLSYPDVIFLAEKKFNDKIDCLMEENISISQIIENPRVLDSSISTLKSRIKELVNAGCNLSTLNITLLSWSKKRYEAKLKKLSRFA
B7: MTPAP (protein, UniProt Q9NVV4 38-582)
chain: KDLRRDEQPSGSVETGFEDKIPKRRFSEMQNERREQAQRTVLIHCPEKISENKFLKYLSQFGPINNHFFYESFGLYAVVEFCQKESIGSLQNGTHTPSTAMETAIPFRSRFFNLKLKNQTSERSRVRSSNQLPRSNKQLFELLCYAESIDDQLNTLLKEFQLTEENTKLRYLTCSLIEDMAAAYFPDCIVRPFGSSVNTFGKLGCDLDMFLDLDETRNLSAHKISGNFLMEFQVKNVPSERIATQKILSVLGECLDHFGPGCVGVQKILNARCPLVRFSHQASGFQCDLTTNNRIALTSSELLYIYGALDSRVRALVFSVRCWARAHSLTSSIPGAWITNFSLTMMVIFFLQRRSPPILPTLDSLKTLADAEDKCVIEGNNCTFVRDLSRIKPSQNTETLELLLKEFFEYFGNFAFDKNSINIRQGREQNKPDSSPLYIQNPFETSLNISKNVSQSQLQKFVDLARESAWILQQEDTDRPSISSNRPWGLVSLLLPSAPNRKSFTKKKSNKFAIETVKNLLESLKGNRTENFTKTSGKRTISTQT
B8: MRM1 (protein, UniProt Q6IN84 21-353)
chain: SHAARHGERPGGEELSRLLLDDLVPTSRLELLFGMTPCLLALQAARRSVARLLLQAGKAGLQGKRAELLRMAEARDIPVLRPRRQKLDTMCRYQVHQGVCMEVSPLRPRPWREAGEASPGDDPQQLWLVLDGIQDPRNFGAVLRSAHFLGVDKVITSRRNSCPLTPVVSKSSAGAMEVMDVFSTDDLTGFLQTKAQQGWLVAGTVGCPSTEDPQSSEIPIMSCLEFLWERPTLLVLGNEGSGLSQEVQASCQLLLTILPRRQLPPGLESLNVSVAAGILLHSICSQRKGFPTEGERRQLLQDPQEPSARSEGLSMAQHPGLSSGPEKERQNEG
B9: TRMT10C (protein, UniProt Q7L0Y3 40-403)
chain: MSSKIPAVTYPKNESTPPSEELELDKWKTTMKSSVQEECVSTISSSKDEDPLAATREFIEMWRLLGREVPEHITEEELKTLMECVSNTAKKKYLKYLYTKEKVKKARQIKKEMKAAAREEAKNIKLLETTEEDKQKNFLFLRLWDRNMDIAMGWKGAQAMQFGQPLVFDMAYENYMKRKELQNTVSQLLESEGWNRRNVDPFHIYFCNLKIDGALHRELVKRYQEKWDKLLLTSTEKSHVDLFPKDSIIYLTADSPNVMTTFRHDKVYVIGSFVDKSMQPGTSLAKAKRLNLATECLPLDKYLQWEIGNKNLTLDQMIRILLCLKNNGNWQEALQFVPKRKHTGFLEISQHSQEFINRLKKAKT
B10: MRM3 (protein, UniProt Q9HC36 41-420)
chain: VFPSGEVVEQKRAPGKQPRKAPSEASAQEQREKQPLEESASRAPSTWEESGLRYDKAYPGDRRLSSVMTIVKSRPFREKQGKILLEGRRLISDALKAGAVPKMFFFSRLEYLKELPVDKLKGVSLIKVKFEDIKDWSDLVTPQGIMGIFAKPDHVKMTYPKTQLQHSLPLLLICDNLRDPGNLGTILRSAAGAGCSKVLLTKGCVDAWEPKVLRAGMGAHFRMPIINNLEWETVPNYLPPDTRVYVADNCGLYAQAEMSNKASDHGWVCDQRVMKFHKYEEEEDVETGASQDWLPHVEVQSYDSDWTEAPAAVVIGGETYGVSLESLQLAESTGGKRLLIPVVPGVDSLNSAMAASILLFEGKRQLRGRAEDLSRDRSYH
B11: METTL17 (protein, UniProt Q9H7H0 28-456)
chain: AALVPGVTQVDNKSGFLQKRPHRQHPGILKLPHVRLPQALANGAQLLLLGSAGPTMENQVQTLTSYLWSRHLPVEPEELQRRARHLEKKFLENPDLSQTEEKLRGAVLHALRKTTYHWQELSYTEGLSLVYMAARLDGGFAAVSRAFHEIRARNPAFQPQTLMDFGSGTGSVTWAAHSIWGQSLREYMCVDRSAAMLVLAEKLLKGGSESGEPYIPGVFFRQFLPVSPKVQFDVVVSAFSLSELPSKADRTEVVQTLWRKTGHFLVLVENGTKAGHSLLMDARDLVLKGKEKSPLDPRPGFVFAPCPHELPCPQLTNLACSFSQAYHPIPFSWNKKPKEEKFSMVILARGSPEEAHRWPRITQPVLKRPRHVHCHLCCPDGHMQHAVLTARRHGRDLYRCARVSSWGDLLPVLTPSAFPPSTAQDPSES

The chains behind the UniProt entries cited, without tags or fusion partners. Where a name states a change or a piece, a line headed by the entry shows the natural chain unless it says otherwise. Residues count along the entry.
UniProt Q8N3Z3: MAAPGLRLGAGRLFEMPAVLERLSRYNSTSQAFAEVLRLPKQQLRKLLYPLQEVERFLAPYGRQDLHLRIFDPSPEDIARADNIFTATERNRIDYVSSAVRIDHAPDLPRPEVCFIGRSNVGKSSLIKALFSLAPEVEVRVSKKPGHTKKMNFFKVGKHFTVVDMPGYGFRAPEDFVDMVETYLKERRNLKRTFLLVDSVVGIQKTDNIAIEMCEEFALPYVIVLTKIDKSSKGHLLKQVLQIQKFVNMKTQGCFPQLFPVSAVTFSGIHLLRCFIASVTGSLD
UniProt A4D1E9: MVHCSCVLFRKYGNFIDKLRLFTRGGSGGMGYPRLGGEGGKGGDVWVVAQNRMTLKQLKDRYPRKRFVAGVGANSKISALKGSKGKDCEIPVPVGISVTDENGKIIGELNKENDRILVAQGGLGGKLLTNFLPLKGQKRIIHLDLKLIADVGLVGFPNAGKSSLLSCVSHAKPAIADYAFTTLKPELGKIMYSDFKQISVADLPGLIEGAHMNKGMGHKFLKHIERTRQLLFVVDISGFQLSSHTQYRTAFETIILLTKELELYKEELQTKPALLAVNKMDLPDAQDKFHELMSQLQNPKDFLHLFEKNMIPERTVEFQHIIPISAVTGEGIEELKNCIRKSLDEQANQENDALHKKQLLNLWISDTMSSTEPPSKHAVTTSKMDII
UniProt Q8WVM0, residues 28-346: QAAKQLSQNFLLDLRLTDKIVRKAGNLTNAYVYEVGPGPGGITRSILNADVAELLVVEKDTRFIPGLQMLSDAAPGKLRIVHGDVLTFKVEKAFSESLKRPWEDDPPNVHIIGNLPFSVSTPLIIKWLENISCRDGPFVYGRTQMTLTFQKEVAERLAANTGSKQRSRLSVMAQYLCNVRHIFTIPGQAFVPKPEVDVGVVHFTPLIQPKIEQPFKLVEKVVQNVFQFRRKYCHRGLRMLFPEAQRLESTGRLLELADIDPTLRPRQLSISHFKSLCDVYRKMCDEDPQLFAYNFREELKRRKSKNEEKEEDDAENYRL

These are yes or no findings as the source states them, for the method shown. In cells and extracts the contact can be indirect. Here binding means that the protein was enriched with, or labelled near, the bait; the list need not be complete.

In the experiment the target is C-terminal FLAG-tagged GTPBP8 (human) (UniProt Q8N3Z3). Description: affinity purification with mass spectrometry; FLAG-IP (Sigma-Aldrich kit) of GTPBP8::FLAG from mitochondrial lysate of HEK293 induced with 50 ng/ml doxycycline for 48 h; buffers with 5 mM MgCl2; elution with 3X FLAG peptides; LFQ mass spectrometry against mtLuc::FLAG control; thresholds log2FC > 3 and adj. p-value < 0.05.
With GTPBP10 (from UniProt A4D1E9 1-387), the binding result is “binds”. The value for TFB1M (from UniProt Q8WVM0 28-346) was “binds”. Turning to B1, the binding entry was “binds”. Regarding B2, the binding entry is “binds”. Take B3: the binding result is “binds”. Regarding B4, the binding entry is recorded as “binds”. Turning to B5, the binding result is recorded as “binds”. Regarding B6, the binding result is “binds”. For B7, the binding result is recorded as “binds”. The value for B8 was “binds”; that for B9 was “binds”. With B10, the binding entry was “binds”. For B11, the binding entry is on record as “binds”.

(Values after PMC11229512.)
